Results deposited as PubChem BioAssay AID504774 (Drosophila RNAi Screening Center, 2011)
Screen: 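Fly genes whose loss alters survival after alkylation damage to DNA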 (primary screen). Cells: Drosophila Kc167 cells. Knock-down reagent: long dsRNA against Drosophila genes, about 0.25 µg dsRNA per well. Timing: about 6 days: 3 days knock-down, then 3 days with or without MMS. Conditions: methyl methanesulphonate 0.004% (w/v) for 3 days after knock-down. Detection: 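Viability in wells given MMS, read as ATP luminescence, normalised by quantiles plate by plate and averaged across replicates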. Scale: mean viability with MMS and viability with MMS: higher = more surviving cells after MMS.
In all, the deposit lists about 23,000 reagents; shown is an unselected part of those that have a named target and a result. 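Values are quantile-normalised luminescence on an arbitrary scale; higher means more cells surviving MMS.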 No sequences are given here.

The opening 5 entries, ahead of the listing:
no.	target gene	dsRNA	mean viability with MMS	viability with MMS, replicate 1	viability with MMS, replicate 2
1	CG32091	DRSC10141	3.60e6	4.21e6	3.92e6
2	CG32091	DRSC10820	3.49e6	4.00e6	3.90e6
3	inaE	DRSC19376	3.60e6	4.14e6	4.02e6
4	inaE	DRSC19377	3.60e6	4.12e6	4.09e6
5	inaE	DRSC19379	3.58e6	4.00e6	4.11e6

The list itself, from the first entry:
no.	target gene	dsRNA	mean viability with MMS	viability with MMS, replicate 1	viability with MMS, replicate 2
1	CG32091	DRSC10141	3.60e6	4.21e6	3.92e6
2	CG32091	DRSC10820	3.49e6	4.00e6	3.90e6
3	inaE	DRSC19376	3.60e6	4.14e6	4.02e6
4	inaE	DRSC19377	3.60e6	4.12e6	4.09e6
5	inaE	DRSC19379	3.58e6	4.00e6	4.11e6
6	inaE	DRSC19726	3.66e6	4.20e6	4.05e6
7	mod(mdg4)	DRSC13474	3.83e6	4.15e6	4.37e6
8	mod(mdg4)	DRSC13475	3.90e6	4.13e6	4.50e6
9	mod(mdg4)	DRSC13478	3.45e6	3.81e6	4.02e6
10	mod(mdg4)	DRSC13479	3.55e6	3.98e6	4.10e6
11	mod(mdg4)	DRSC15042	3.59e6	4.07e6	4.07e6
12	mod(mdg4)	DRSC17000	3.46e6	3.89e6	3.96e6
13	VhaPPA1-1	DRSC16170	3.52e6	4.01e6	3.97e6
14	eya	DRSC03510	3.61e6	4.23e6	3.97e6
15	RpS12	DRSC11270	3.13e6	3.66e6	3.61e6
16	Not1	DRSC06787	3.44e6	3.92e6	3.90e6
17	Not1	DRSC06794	3.38e6	3.87e6	3.75e6
18	Polr2I	DRSC16832	2.79e6	3.53e6	3.54e6
19	CG6195	DRSC15989	3.46e6	4.01e6	3.86e6
20	CG31562 (retired record)	DRSC12273	3.57e6	4.02e6	4.09e6
21	CG31562 (retired record)	DRSC12274	3.49e6	4.02e6	3.90e6
22	Nmd3	DRSC18687	3.71e6	4.16e6	4.23e6
23	Nmd3	DRSC22834	3.48e6	4.02e6	3.91e6
24	Ppox	DRSC17033	3.47e6	3.90e6	3.93e6
25	Cubn2	DRSC10561	3.59e6	4.14e6	3.98e6
26	Cubn2	DRSC22044	3.65e6	4.06e6	4.15e6
27	Drep3	DRSC06312	3.63e6	3.51e6	3.48e6
28	Drep3	DRSC07529	1.77e6	3.81e6	
29	Drep3	DRSC22344	3.58e6	4.05e6	4.04e6
30	CG14435	DRSC17928	3.30e6	3.86e6	3.59e6
31	CG14435	DRSC23282	3.55e6	4.00e6	4.08e6
32	ldbr	DRSC10933	3.62e6	4.03e6	4.18e6
33	CG14624	DRSC18634	3.40e6	3.89e6	3.83e6
34	Nepl8	DRSC02759	3.31e6	3.76e6	3.70e6
35	CG17597	DRSC02630	3.51e6	3.96e6	4.01e6
36	kst	DRSC08719	3.66e6	4.18e6	4.14e6
37	CG1789	DRSC18140	3.53e6	3.82e6	4.05e6
38	CG14926	DRSC02409	3.48e6	3.80e6	4.11e6
39	Cyp4ac2	DRSC03303	3.58e6	3.98e6	4.12e6
40	ush	DRSC00843	3.79e6	4.43e6	4.21e6
41	CG10466	DRSC02060	3.50e6	3.98e6	3.94e6
42	DopEcR	DRSC08529	3.52e6	3.99e6	4.00e6
43	Pmvk	DRSC02032	3.51e6	3.94e6	4.01e6
44	CG44251	DRSC06856	3.62e6	4.09e6	4.10e6
45	cl	DRSC02118	3.54e6	4.01e6	4.00e6
46	cer	DRSC05992	3.62e6	4.10e6	4.09e6
47	CG33284	DRSC22905	3.59e6	4.01e6	4.09e6
48	Nek2	DRSC18124	3.32e6	4.20e6	4.02e6
49	CG33523	DRSC09814	3.41e6	3.80e6	3.92e6
50	CG33523	DRSC22155	3.54e6	4.03e6	4.00e6
51	Tsp47F	DRSC07325	3.41e6	3.74e6	3.97e6
52	GlnRS	DRSC14140	3.34e6	3.81e6	3.79e6
53	rho	DRSC08734	3.48e6	3.96e6	3.94e6
54	CG31102	DRSC14260	3.63e6	4.18e6	4.04e6
55	Bre1	DRSC09742	3.48e6	3.91e6	3.97e6
56	CG3257	DRSC04351	3.57e6	4.12e6	4.10e6
57	ppk14	DRSC03238	3.48e6	3.96e6	3.94e6
58	CG42367	DRSC21388	3.60e6	4.13e6	4.02e6
59	Lsp2	DRSC09841	3.40e6	3.79e6	3.87e6
60	Lsp2	DRSC11216	3.55e6	3.95e6	4.10e6
61	tutl	DRSC00441	3.63e6	4.10e6	4.10e6
62	tutl	DRSC00442	3.59e6	4.18e6	3.94e6
63	tutl	DRSC00443	3.22e6	3.62e6	3.51e6
64	CG16868	DRSC06633	3.49e6	3.90e6	4.02e6
65	pHCl-2	DRSC14306	3.25e6	3.66e6	3.64e6
66	sstn	DRSC10753	3.41e6	3.83e6	3.84e6
67	dnc	DRSC17758	3.20e6	3.76e6	3.68e6
68	dnc	DRSC17759	3.52e6	4.00e6	4.01e6
69	dnc	DRSC17911	3.47e6	3.96e6	3.90e6
70	dnc	DRSC18763	3.57e6	4.03e6	4.08e6
71	dnc	DRSC18764	3.35e6	3.83e6	3.78e6
